From the supplement of paper PMC11732987, “Enantioselective OTUD7B fragment discovery through chemoproteomics screening and high-throughput optimisation” (Communications Chemistry, 2025) come the findings set out here.

Protein sequences, listed by entry. Tags and fused reporters are not part of them. Lines headed by an entry give the natural chain unless they say otherwise; changes in a name come on top.
UniProt P51608: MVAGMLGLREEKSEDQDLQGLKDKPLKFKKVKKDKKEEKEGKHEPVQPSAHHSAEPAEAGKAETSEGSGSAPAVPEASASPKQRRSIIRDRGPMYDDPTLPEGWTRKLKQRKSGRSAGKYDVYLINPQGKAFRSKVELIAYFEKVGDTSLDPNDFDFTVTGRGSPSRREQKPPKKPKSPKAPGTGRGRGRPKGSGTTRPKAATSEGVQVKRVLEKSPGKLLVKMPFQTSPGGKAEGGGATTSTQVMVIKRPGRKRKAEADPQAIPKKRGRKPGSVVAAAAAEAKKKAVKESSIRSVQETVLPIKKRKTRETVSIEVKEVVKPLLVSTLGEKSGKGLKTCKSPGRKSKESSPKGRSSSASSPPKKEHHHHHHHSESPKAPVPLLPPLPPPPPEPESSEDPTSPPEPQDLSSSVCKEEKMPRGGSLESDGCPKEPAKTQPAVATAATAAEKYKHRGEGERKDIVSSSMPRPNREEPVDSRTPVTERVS
UniProt O60291: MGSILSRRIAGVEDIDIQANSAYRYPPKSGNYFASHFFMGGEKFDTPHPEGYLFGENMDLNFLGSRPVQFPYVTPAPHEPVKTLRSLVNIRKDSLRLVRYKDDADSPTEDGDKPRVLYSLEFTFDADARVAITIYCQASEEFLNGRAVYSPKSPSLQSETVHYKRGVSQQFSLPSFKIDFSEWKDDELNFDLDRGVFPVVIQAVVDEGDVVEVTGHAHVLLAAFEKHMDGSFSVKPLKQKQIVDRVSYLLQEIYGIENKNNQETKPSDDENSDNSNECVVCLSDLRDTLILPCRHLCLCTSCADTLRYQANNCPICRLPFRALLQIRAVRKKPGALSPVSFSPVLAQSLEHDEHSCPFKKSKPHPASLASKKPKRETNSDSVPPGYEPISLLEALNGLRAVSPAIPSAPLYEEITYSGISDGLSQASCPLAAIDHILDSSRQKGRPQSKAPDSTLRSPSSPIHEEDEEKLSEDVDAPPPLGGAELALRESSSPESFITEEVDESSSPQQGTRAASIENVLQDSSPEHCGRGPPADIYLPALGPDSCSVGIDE
UniProt Q9BUB5: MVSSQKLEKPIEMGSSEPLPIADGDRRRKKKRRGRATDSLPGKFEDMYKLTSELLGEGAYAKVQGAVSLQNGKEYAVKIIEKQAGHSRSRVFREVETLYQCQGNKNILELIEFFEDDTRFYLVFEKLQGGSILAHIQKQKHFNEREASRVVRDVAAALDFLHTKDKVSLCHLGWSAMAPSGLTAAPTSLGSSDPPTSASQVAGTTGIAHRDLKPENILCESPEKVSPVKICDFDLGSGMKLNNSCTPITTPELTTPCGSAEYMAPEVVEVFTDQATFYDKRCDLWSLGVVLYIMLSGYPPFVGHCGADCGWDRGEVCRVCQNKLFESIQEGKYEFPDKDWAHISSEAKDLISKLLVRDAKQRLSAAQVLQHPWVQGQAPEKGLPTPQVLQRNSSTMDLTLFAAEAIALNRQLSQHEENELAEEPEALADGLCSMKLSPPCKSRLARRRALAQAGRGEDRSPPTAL
UniProt Q96T76: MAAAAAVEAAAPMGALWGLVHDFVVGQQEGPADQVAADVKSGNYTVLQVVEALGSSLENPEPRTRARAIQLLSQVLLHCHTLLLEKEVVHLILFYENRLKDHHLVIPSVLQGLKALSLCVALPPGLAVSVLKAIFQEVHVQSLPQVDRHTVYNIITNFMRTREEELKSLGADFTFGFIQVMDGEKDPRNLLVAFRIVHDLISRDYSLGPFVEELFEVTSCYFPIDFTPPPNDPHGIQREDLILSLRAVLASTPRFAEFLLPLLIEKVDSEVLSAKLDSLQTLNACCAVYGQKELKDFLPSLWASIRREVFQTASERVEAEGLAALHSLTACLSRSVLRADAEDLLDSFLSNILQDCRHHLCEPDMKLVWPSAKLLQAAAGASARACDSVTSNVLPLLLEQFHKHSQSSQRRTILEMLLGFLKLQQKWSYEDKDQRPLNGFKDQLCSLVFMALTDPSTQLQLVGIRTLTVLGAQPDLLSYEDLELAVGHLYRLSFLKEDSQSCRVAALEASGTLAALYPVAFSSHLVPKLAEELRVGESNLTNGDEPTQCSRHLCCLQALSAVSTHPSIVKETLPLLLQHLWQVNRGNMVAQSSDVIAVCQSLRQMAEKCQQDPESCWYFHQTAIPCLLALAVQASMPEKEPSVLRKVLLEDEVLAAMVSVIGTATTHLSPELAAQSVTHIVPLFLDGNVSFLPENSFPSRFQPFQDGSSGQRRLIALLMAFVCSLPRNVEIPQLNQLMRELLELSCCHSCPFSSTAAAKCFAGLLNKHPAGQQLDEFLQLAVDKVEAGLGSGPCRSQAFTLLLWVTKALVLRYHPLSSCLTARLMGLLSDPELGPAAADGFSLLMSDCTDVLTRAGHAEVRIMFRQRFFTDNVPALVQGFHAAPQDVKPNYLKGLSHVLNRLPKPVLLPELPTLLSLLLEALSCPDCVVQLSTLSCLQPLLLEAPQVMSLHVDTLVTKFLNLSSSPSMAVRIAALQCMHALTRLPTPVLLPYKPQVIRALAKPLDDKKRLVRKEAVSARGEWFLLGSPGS
UniProt Q9ULK4: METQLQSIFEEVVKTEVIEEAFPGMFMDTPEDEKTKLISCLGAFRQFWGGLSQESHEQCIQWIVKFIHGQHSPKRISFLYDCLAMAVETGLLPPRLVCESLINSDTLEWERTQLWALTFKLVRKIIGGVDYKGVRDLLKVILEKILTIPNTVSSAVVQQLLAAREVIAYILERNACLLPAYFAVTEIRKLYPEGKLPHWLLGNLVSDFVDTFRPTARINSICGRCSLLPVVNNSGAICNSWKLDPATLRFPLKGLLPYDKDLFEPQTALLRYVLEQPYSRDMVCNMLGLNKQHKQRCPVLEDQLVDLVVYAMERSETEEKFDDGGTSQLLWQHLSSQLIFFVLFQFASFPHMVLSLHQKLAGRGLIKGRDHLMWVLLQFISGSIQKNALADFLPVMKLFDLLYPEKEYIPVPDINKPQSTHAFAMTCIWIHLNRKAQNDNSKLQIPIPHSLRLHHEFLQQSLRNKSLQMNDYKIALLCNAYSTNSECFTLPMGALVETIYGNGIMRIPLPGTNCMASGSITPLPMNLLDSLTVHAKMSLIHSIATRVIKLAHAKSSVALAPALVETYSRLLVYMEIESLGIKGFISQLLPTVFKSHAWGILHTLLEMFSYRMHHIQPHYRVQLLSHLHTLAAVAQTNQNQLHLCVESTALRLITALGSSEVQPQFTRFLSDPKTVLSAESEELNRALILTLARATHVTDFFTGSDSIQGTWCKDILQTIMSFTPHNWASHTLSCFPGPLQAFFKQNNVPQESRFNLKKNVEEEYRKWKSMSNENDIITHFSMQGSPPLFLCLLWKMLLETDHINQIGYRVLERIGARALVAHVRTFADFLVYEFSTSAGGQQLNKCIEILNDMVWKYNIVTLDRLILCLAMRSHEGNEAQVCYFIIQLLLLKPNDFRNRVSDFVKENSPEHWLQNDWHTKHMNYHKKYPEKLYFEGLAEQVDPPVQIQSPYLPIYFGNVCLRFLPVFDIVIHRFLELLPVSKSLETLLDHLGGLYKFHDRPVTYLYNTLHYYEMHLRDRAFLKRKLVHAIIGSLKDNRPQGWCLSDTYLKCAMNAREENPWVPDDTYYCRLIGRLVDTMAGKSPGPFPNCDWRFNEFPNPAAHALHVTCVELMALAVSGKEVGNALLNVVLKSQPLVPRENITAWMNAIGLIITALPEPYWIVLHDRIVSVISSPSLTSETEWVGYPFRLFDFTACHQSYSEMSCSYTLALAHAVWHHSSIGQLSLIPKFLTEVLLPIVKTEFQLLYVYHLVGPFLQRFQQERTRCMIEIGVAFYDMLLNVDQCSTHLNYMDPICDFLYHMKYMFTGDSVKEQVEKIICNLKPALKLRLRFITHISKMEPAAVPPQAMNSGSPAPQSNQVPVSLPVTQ
UniProt Q99549: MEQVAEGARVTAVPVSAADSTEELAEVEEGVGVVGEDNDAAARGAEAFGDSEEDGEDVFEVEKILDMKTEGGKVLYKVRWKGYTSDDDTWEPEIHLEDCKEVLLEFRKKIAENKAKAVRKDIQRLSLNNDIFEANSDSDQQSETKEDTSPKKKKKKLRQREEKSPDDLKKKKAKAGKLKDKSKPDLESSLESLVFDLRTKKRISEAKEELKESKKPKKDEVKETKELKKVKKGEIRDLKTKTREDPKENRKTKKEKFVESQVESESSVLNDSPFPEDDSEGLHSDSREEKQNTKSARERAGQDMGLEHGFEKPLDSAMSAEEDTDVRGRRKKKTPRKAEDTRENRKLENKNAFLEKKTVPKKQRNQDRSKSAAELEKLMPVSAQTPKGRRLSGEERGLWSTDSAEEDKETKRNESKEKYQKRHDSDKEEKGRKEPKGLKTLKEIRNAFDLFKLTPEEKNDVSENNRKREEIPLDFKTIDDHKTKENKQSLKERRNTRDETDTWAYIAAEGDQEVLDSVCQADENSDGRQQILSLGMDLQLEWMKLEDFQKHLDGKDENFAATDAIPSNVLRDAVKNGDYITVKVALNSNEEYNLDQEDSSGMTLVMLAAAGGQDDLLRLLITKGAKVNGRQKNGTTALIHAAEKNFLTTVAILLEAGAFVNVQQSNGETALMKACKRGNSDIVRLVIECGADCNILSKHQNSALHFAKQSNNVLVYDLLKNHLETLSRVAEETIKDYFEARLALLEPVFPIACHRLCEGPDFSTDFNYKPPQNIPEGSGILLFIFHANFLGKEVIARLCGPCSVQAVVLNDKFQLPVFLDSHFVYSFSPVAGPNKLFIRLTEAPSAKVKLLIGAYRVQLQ
UniProt Q96G25: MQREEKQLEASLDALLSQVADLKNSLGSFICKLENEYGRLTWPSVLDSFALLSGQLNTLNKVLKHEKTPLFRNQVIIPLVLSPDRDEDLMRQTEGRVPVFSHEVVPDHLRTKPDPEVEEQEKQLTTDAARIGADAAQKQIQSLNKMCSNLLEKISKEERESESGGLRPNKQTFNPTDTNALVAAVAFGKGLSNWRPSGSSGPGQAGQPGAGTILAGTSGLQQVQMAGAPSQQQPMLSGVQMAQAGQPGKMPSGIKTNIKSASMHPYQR
UniProt Q9Y4C4: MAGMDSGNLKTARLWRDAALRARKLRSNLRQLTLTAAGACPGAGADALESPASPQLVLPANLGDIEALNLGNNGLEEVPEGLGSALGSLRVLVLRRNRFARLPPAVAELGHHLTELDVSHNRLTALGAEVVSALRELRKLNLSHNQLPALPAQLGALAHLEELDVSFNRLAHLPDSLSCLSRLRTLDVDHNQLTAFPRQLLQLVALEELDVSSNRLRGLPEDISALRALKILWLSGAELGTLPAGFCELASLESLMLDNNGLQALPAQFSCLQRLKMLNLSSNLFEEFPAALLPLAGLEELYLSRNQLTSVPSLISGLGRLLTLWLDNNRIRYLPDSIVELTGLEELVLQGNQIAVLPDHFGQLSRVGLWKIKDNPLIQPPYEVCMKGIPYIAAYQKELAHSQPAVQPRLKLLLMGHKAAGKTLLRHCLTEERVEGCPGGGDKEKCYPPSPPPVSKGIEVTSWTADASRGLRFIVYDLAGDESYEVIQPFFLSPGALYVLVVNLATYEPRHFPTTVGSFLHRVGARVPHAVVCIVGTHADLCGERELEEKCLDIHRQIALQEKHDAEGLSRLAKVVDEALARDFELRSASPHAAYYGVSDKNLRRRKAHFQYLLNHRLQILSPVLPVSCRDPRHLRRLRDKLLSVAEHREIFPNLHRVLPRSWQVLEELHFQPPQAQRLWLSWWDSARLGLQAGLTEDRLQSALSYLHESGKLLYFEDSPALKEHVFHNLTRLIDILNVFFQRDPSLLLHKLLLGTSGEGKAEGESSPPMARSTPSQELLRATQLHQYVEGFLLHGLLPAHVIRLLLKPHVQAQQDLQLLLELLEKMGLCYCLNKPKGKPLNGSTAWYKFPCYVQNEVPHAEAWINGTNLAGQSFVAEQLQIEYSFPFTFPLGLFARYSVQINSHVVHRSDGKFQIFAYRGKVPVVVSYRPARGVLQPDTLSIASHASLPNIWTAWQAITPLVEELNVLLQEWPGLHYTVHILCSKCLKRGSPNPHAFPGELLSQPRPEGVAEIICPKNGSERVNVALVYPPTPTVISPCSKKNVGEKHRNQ
UniProt P50579: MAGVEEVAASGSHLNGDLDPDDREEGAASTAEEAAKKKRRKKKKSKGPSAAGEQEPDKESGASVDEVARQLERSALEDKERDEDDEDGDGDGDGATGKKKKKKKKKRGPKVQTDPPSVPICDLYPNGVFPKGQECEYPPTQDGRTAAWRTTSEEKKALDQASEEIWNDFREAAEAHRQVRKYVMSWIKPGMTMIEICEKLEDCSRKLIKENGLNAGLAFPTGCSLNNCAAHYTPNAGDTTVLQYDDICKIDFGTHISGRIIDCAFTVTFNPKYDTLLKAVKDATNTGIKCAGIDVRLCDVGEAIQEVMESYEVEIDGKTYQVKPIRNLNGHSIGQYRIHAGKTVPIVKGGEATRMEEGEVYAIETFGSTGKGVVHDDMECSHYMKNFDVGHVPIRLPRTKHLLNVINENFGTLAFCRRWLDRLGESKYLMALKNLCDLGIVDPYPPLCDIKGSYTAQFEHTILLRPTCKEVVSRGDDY

The other results are listed elsewhere or left out. The data scatter; read single values as rough.

Compound in one assay: ClCC(=O)N[C@H]1CCCc2ccccc12
The experiment in a line: log2 mean competition ratio of IA-DTB cysteine labelling (DMSO/compound) (log2 ratio); higher = stronger cysteine engagement by compound. The following applies: 50 µM; treatment time: 4 h; cell line lysate: HEK293T. As for the experimental part:
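IA-DTB competitive cysteine chemoproteomics in HEK293T RIPA lysate. Lysates were treated with compound 29 or 30 at 50 or 200 µM for 4 h, then IA-DTB (500 µM, 1 h), trypsin-digested, NeutrAvidin-enriched and analysed by diaPASEF. Competition ratio = intensity DMSO / intensity compound (n=4 treated, n=64 DMSO); binding: mean log2 CR ≥ 1 and p ≤ 0.05 plus QC filters. Target is the cysteine site.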
As for MID2 C630, the “log2 mean competition ratio” value worked out at 0.0922.
The same measure, in the same setting: for MRNIP C126 (UniProt Q6NTE8) the value was -0.00279; for MECP2 C429 (UniProt P51608), -0.057.
The same measure, in the same setting: for MDK C61 (UniProt P21741) the value was -0.0213.
The same measure, in the same setting: for MGRN1 C293 (UniProt O60291) the value was 0.157.
MIA2 C755 (UniProt Q96PC5): the “log2 mean competition ratio” value was -0.543.
For the target MGRN1 C528 (UniProt O60291), the “log2 mean competition ratio” value was -0.0781.
The same measure, in the same setting: for MKNK1 C219 (UniProt Q9BUB5) the value was -0.81; for MIGA1 C150, -0.202.
On to MMS19 C760 (UniProt Q96T76), for which the “log2 mean competition ratio” value is -0.0597.
Still for that read-out and setting: for MED25 C429 (UniProt Q71SY5) the value was -0.147.
Still for that read-out and setting: for MPP2 C270 the value was -0.338; for MRM3 C290 (UniProt Q9HC36), 0.63.
For the target MED23 C1319 (UniProt Q9ULK4), the “log2 mean competition ratio” value is -0.0669.
The same measure, in the same setting: for MIS12 C104 (UniProt Q9H081) the value was -0.486; for MPHOSPH8 C753 (UniProt Q99549), -0.215.
On to MED8 C31 (UniProt Q96G25), for which the “log2 mean competition ratio” value was determined as 0.506.
The same measure, in the same setting: for MDN1 C1394 (UniProt Q9NU22) the value was -0.106; for MFHAS1 C385 (UniProt Q9Y4C4), -0.136; for METAP2 C135 (UniProt P50579), 0.103.

Staying with this assay, now noted: 200 µM; treatment time: 4 h; cell line lysate: HEK293T.
Turning to MID2 C630, the “log2 mean competition ratio” value is -0.0946.
For the target MRNIP C126 (UniProt Q6NTE8), the “log2 mean competition ratio” value is -0.00853.
As for MECP2 C429 (UniProt P51608), the “log2 mean competition ratio” value was 0.0286.
On the same count and under the same terms, for MDK C61 (UniProt P21741) the value was 0.321.
On the same count and under the same terms, for MGRN1 C293 (UniProt O60291) the value was -0.00295.
Still for that read-out and setting: for MIA2 C755 (UniProt Q96PC5) the value was -0.0188.
Consider MGRN1 C528 (UniProt O60291), for which the “log2 mean competition ratio” value came out at 0.113.
The same measure, in the same setting: for MKNK1 C219 (UniProt Q9BUB5) the value was -0.173; for MIGA1 C150, 0.0882; for MMS19 C760 (UniProt Q96T76), -0.0371.
In the case of MED25 C429 (UniProt Q71SY5), the “log2 mean competition ratio” value was -0.0858.
Turning to MPP2 C270, the “log2 mean competition ratio” value stood at 0.117.
On the same count and under the same terms, for MRM3 C290 (UniProt Q9HC36) the value was 0.218; for MED23 C1319 (UniProt Q9ULK4), -0.353; for MIS12 C104 (UniProt Q9H081), -0.327.
For the target MPHOSPH8 C753 (UniProt Q99549), the “log2 mean competition ratio” value is -0.0322.
On the same count and under the same terms, for MED8 C31 (UniProt Q96G25) the value was -0.252; for MDN1 C1394 (UniProt Q9NU22), 0.0283.
On the same count and under the same terms, for MFHAS1 C385 (UniProt Q9Y4C4) the value was 0.136; for METAP2 C135 (UniProt P50579), -0.063.
